Measurements published in PubChem BioAssay AID485314 (National Center for Advancing Translational Sciences (NCATS), 2010).
Among all 340,000 compounds or so, about 4,500 (1.3%) were called active. Inconclusive results, whose numbers are uncertain, are shown with a selection of clear calls. Calls follow the shape of the dose curve; as a rule, active = well fitted inhibition curve with a large enough effect; inconclusive = small, poorly fitted or top-dose-only effect, or another doubt; inactive = no such curve, though single readings can be large or run the other way. A potency beside an inconclusive call is a rough fit, not a confirmed value.

molecular target: DNA polymerase beta (Homo sapiens) (UniProt P06746); test: qHTS Assay for Inhibitors of DNA Polymerase Beta; conditions: Pol beta primer extension/strand displacement, fluorescence kinetic; activity change, negative = inhibition: at 114 µM (top of the series)
How it was run: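 Enzyme-only controls used 10 nM Pol beta; buffer lacking enzyme served as negative control. Compound preincubated 15 min, then 50 nM substrate added; 0 and 10 min reads at room temperature.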
% is scaled to controls: 0 for no effect and ±100 for the full control effect; potency is read from the fitted curve at half-maximal effect.

With `CC(C)CCn1c(N2CCOCC2)nc2c1c(=O)n(CC(N)=O)c(=O)n2C` as the molecule, how does the Potency read?
Its Potency is inconclusive: 89.1 µM [inhibitor, single point].

Which “activity change, negative = inhibition” value does the source give for `O=C1OCC(CO)(CO)N=C1NNc1ccccc1[N+](=O)[O-]` here?
The value was inactive: 2.17%.

For `O=C(NC(=S)Nc1ccc2c(c1)OCO2)c1ccccc1`, which “activity change, negative = inhibition” value is on record?
Its value is inactive: -7.05%.

`O=C(CCN1C(=O)/C(=C\c2ccccc2)SC1=S)Nc1ccc(C(=O)O)cc1` was tested. Which Potency did it give?
Its Potency is inconclusive: 63.1 µM [inhibitor, single point].

For `Cc1ccc(-n2cc(CNCCc3ncc(C)[nH]3)c(-c3ccc(F)cc3)n2)cc1`, which Potency is on record?
Its Potency is inconclusive: 89.1 µM [inhibitor, single point].

How did the Potency turn out when `S=C(NCc1ccccc1)N1CCN(c2cccc(Cl)c2)CC1` was run?
Its Potency is inconclusive: 39.8 µM [inhibitor, single point].

For `CC12CCC(C(=O)O)(c3nc4cc([N+](=O)[O-])ccc4nc31)C2(C)C` (centres undefined), which Potency is on record?
Its Potency is inconclusive: 10 µM [inhibitor, full curve, poor fit].

How did the “activity change, negative = inhibition” value turn out when `O=C(CS(=O)(=O)c1cccc2nsnc12)NCc1ccccc1` was run?
The value was inactive: 3.64%.

With `O=C(CSc1ccc2nnc(-c3ccc(F)cc3)n2n1)NCc1ccco1` as the molecule, how does the Potency read?
Its Potency is inconclusive: 22.4 µM [inhibitor, full curve].

Which “activity change, negative = inhibition” value does the source give for `Cc1noc(/C=C/c2ccccc2F)c1S(=O)(=O)N1CCC(C(=O)NCC(C)c2ccccc2)CC1` (centres undefined) here?
Its value is inactive: 5.78%.

For `COc1cc(C(=O)Nc2ccc3nc(N4CCN(C)CC4)cc(C)c3c2)cc(OC)c1OC`, which Potency is on record?
The Potency was inconclusive: 3.55 µM [inhibitor, single point].

For `COc1ccc(CCNC(=O)C2CCC(=O)N2S(=O)(=O)c2ccc(C)cc2)cc1` (centres undefined), which Potency is on record?
The Potency was inconclusive: 100 µM [inhibitor, single point].

For `O=C(c1ccc2c(c1)N(Cc1ccccc1)C(=O)c1ccccc1S2(=O)=O)N1CCc2ccccc21`, which “activity change, negative = inhibition” value is on record?
The value was inactive: 20.1%.

How did the “activity change, negative = inhibition” value turn out when `Cc1c(NC(=O)C(C)(C)Oc2ccc(Cl)cc2)cccc1-c1nc2ccccc2o1` was run?
The value was inactive: 35.9%.

`COc1ccc(Cn2nnnc2C(c2cc3cc(C)ccc3[nH]c2=O)N2CCN(C)CC2)cc1` (centres undefined) was tested. Which Potency did it give?
The Potency was inconclusive: 70.8 µM [inhibitor, single point].

With `COc1cc2[nH]c(=S)nc(NC3CCCCCC3)c2cc1OC` as the molecule, how does the Potency read?
The Potency was inconclusive: 89.1 µM [inhibitor, single point].

With `COC(=O)c1ccccc1NC(=O)c1nc(-c2ccc(Cl)cc2)n2c1CCCCC2` as the molecule, how does the “activity change, negative = inhibition” value read?
The value was inactive: 8.63%.

For `COc1cccc(Cc2nc3ccccc3nc2SCC(=O)N2CCCc3ccccc32)c1`, which Potency is on record?
Its Potency is inconclusive: 89.1 µM [inhibitor, single point].

With `CC(=O)Nc1ccc(S(=O)(=O)N2CCN=C2SCc2ccc([N+](=O)[O-])cc2)cc1` as the molecule, how does the “activity change, negative = inhibition” value read?
The value was inactive: -0.819%.

`CC(C)C(=O)NC(=S)Nc1ccc(S(=O)(=O)Nc2nccs2)cc1` was tested. Which Potency did it give?
Its Potency is inconclusive: 63.1 µM [inhibitor, single point].

`CCOC(=O)c1c(NC(=O)CSc2nnnn2C)sc(C)c1-c1ccc(C)cc1` was tested. Which Potency did it give?
The Potency was inconclusive: 7.08 µM [inhibitor, partial curve].

`COc1ccccc1C1CC(c2ccccc2)=NN1S(=O)(=O)c1ccccc1` (centres undefined) was tested. Which “activity change, negative = inhibition” value did it give?
Its value is inactive: -5.24%.

For `Cc1cc(C)nc(N2CCCC(C(=O)NC3CC3)C2)n1` (centres undefined), which “activity change, negative = inhibition” value is on record?
Its value is inactive: -14.3%.

How did the Potency turn out when `CSCCC(NS(=O)(=O)c1ccc(C)c(C(=O)O)c1)C(=O)O` (centres undefined) was run?
Its Potency is active: 25.1 µM.

How did the Potency turn out when `Cc1cc(F)ccc1S(=O)(=O)Nc1ccc(O)c(Sc2ncn[nH]2)c1` was run?
Its Potency is inconclusive: 11.2 µM [inhibitor, single point].

`CN(C(=O)CSc1nnc(COc2ccccc2)o1)c1ccccc1` was tested. Which “activity change, negative = inhibition” value did it give?
Its value is inactive: 8.27%.

How did the Potency turn out when `CCOc1ccc(OCC)c(NC(=O)c2cc3ccccn3n2)c1` was run?
The Potency was inconclusive: 89.1 µM [inhibitor, single point].

`COc1ccc(C(=O)Nc2ccccc2C(=O)NCc2cccnc2)cc1OC` was tested. Which Potency did it give?
Its Potency is inconclusive: 89.1 µM [inhibitor, single point].

For `CC/C(=N\NC(=O)C1CCCC1)c1ccc(Br)cc1`, which Potency is on record?
The Potency was inconclusive: 3.55 µM [inhibitor, single point].

How did the Potency turn out when `FC(F)(F)c1cccc(Cc2noc(CN3CCCCC3c3ccccn3)n2)c1` (centres undefined) was run?
The Potency was inconclusive: 56.2 µM [inhibitor, single point].

For `CCCOc1ccc(CNC(=O)c2[nH]c3cc(OC)ccc3c2Sc2ccccc2)cc1`, which Potency is on record?
The Potency was inconclusive: 89.1 µM [inhibitor, single point].

Which “activity change, negative = inhibition” value does the source give for `Cc1noc(/C=C/c2ccccc2F)c1S(=O)(=O)N1CCC(C(=O)N2CCOc3ccccc32)CC1` here?
The value was inactive: 1.29%.

`COc1ccc(/C=N/OCC(=O)N=Nc2c(O)[nH]c3ccc(Br)cc23)cc1OC` was tested. Which Potency did it give?
Its Potency is inconclusive: 35.5 µM [inhibitor, partial curve].

How did the Potency turn out when `COc1ccc(N=Cc2c(O)c3ccccc3oc2=O)cc1` was run?
Its Potency is inconclusive: 39.8 µM [inhibitor, single point].

How did the Potency turn out when `Cc1cc(SCC(=O)N/N=C/c2ccc(O)c(O)c2)c(C)cc1Br` was run?
Its Potency is active: 15.8 µM.

For `CC(C)(C)NNC(=S)Nc1cccc(F)c1`, which Potency is on record?
The Potency was inconclusive: 100 µM [inhibitor, single point].

How did the “activity change, negative = inhibition” value turn out when `CC(=O)Nc1ccc(N(C(=O)Cn2nnc3ccccc32)C(C(=O)NCc2ccccc2)c2ccc(C)cc2)cc1` (centres undefined) was run?
The value was inactive: 11.2%.

With `CCOc1ccc(N2CC(O)=C(c3nc4ccccc4c(=O)[nH]3)C2=N)cc1` as the molecule, how does the Potency read?
The Potency was inconclusive: 4.47 µM [inhibitor, single point].

How did the Potency turn out when `COc1ccc(N(C(=O)c2cccnc2)S(=O)(=O)c2ccc(F)cc2)cc1` was run?
Its Potency is inconclusive: 0.282 µM [inhibitor, full curve].

How did the Potency turn out when `NC(=O)c1cccc(N=Cc2cc(Cl)cc(Cl)c2O)c1` was run?
The Potency was inconclusive: 12.6 µM [inhibitor, single point].

Which Potency does the source give for `CN1\C(=C/C=C/C=C/C=[N+](C)C)C(C)(C)c2ccccc21` here?
The Potency was active: 15.8 µM.

How did the activity change, negative = inhibition turn out when `COc1ccc(/C=C(\NC(=O)c2ccccc2)C(=O)NC2CCS(=O)(=O)C2)cc1` (centres undefined) was run?
The activity change, negative = inhibition was inconclusive: -51.6% [inhibitor].

`Cc1ccc(C(=O)NCC(=O)NC23CC4CC(CC(C4)C2)C3)cc1` was tested. Which Potency did it give?
Its Potency is inconclusive: 1 µM [inhibitor, full curve, poor fit].

For `N#Cc1cc2c(nc1SCc1cccnc1)CCC2`, which Potency is on record?
The Potency was inconclusive: 3.55 µM [inhibitor, full curve].
